# Experimental data: patent publication US9406887B2, “Solution, organic semiconductor material, organic semiconductor film, electronic device and electronic equipment” (RICOH COMPANY, LTD., priority 2013, dated 2016)
# Some entries share one result that the patent states for a list of compounds.
# Assay: Solubility of the compound in an organic solvent (saturated solution at 25° C. after reflux)
# Type: physicochemical
# Settings: summary of Table 1
# Experimental: After the compound was added to […] of an organic solvent such as toluene, THF and chloroform until insoluble residue remained, the mixture was stirred for 10 min while the organic solvent was refluxed with heat. Next, after the mixture was cooled to have a temperature of 25° C., it was stirred for 1 hr. Further, after quietly put for 16 hrs, the top clear layer of the mixture was filtered through a PTFE filter having a hole diameter of 0.2 μm to prepare a saturated solution. Next, the solution was dried under reduced pressure and the solubility of the compound in an organic solvent was measured. The evaluation standard of the solubility of the compound in an organic solvent is as follows.
Compound,"soluble in toluene, THF and chloroform","insoluble in toluene, THF and chloroform"
CC(C)(C)OC(=O)N1C(=O)C2=C(c3cccs3)N(C(=O)OC(C)(C)C)C(=O)C2=C1c1cccs1 [formula (1-1)],soluble (a solubility of a material not less than 0.05% by weight),–
CC(C)(C)OC(=O)N1C(=O)C2=C(c3ccc(Br)s3)N(C(=O)OC(C)(C)C)C(=O)C2=C1c1ccc(Br)s1 [formula (1-4)],soluble (a solubility of a material not less than 0.05% by weight),–
CCCCCCc1ccc(-c2ccc(C3=C4C(=O)N(C(=O)OC(C)(C)C)C(c5ccc(-c6ccc(CCCCCC)s6)s5)=C4C(=O)N3C(=O)OC(C)(C)C)s2)s1 [formula (1-12)],soluble (a solubility of a material not less than 0.05% by weight),–
CCCCCCc1ccc(-c2ccc(-c3ccc(C4=C5C(=O)N(C(=O)OC(C)(C)C)C(c6ccc(-c7ccc(-c8ccc(CCCCCC)s8)s7)s6)=C5C(=O)N4C(=O)OC(C)(C)C)s3)s2)s1 [formula (1-16)],soluble (a solubility of a material not less than 0.05% by weight),–
CCCCCCc1csc(-c2ccc(C3=C4C(=O)N(C(=O)OC(C)(C)C)C(c5ccc(-c6cc(CCCCCC)cs6)s5)=C4C(=O)N3C(=O)OC(C)(C)C)s2)c1 [formula (1-17)],soluble (a solubility of a material not less than 0.05% by weight),–
CCCCCCOc1ccc(-c2ccc(C3=C4C(=O)N(C(=O)OC(C)(C)C)C(c5ccc(-c6ccc(OCCCCCC)cc6)s5)=C4C(=O)N3C(=O)OC(C)(C)C)s2)cc1 [formula (1-18)],soluble (a solubility of a material not less than 0.05% by weight),–
CCCCCCCCCCCCOc1cc(-c2ccc(-c3ccc(C4=C5C(=O)N(C(=O)OC(C)(C)C)C(c6ccc(-c7ccc(-c8cc(OCCCCCCCCCCCC)c(OCCCCCCCCCCCC)c(OCCCCCCCCCCCC)c8)s7)s6)=C5C(=O)N4C(=O)OC(C)(C)C)s3)s2)cc(OCCCCCCCCCCCC)c1OCCCCCCCCCCCC [formula (1-25)],soluble (a solubility of a material not less than 0.05% by weight),–
CCCCCCCCCCCCOc1cc(-c2ccc(-c3ccc(-c4ccc(C5=C6C(=O)N(C(=O)OC(C)(C)C)C(c7ccc(-c8ccc(-c9ccc(-c%10cc(OCCCCCCCCCCCC)c(OCCCCCCCCCCCC)c(OCCCCCCCCCCCC)c%10)s9)s8)s7)=C6C(=O)N5C(=O)OC(C)(C)C)s4)s3)s2)cc(OCCCCCCCCCCCC)c1OCCCCCCCCCCCC [formula (1-27)],soluble (a solubility of a material not less than 0.05% by weight),–
O=C1NC(c2cccs2)=C2C(=O)NC(c3cccs3)=C12 [formula (2-1)],–,insoluble (a solubility of a material less than 0.01% by weight)
